Reference: PMC3776556, “Crystal structures of the CPAP/STIL complex reveal its role in centriole assembly and human microcephaly” (eLife, 2013)
Results are given in words; binding and its absence hold for the method and conditions named. In cells and extracts the contact can be indirect. Some binding calls cover weakened binding; strength is not graded here. Sequences can lack the tags named with a protein.

Target: T1, C. elegans SAS-5 N-terminal domain (aa 1–202)-6xHis (C. elegans) (UniProt Q20010)
T1 sequence: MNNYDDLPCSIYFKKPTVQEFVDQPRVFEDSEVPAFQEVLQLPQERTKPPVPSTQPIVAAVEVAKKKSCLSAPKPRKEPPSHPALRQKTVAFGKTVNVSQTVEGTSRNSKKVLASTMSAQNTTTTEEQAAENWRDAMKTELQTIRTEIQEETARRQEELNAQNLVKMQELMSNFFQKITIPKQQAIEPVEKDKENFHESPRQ
Assay: pull-down; SAS-5-6xHis fragments on Ni-NTA beads (bait), ^35S-labelled in vitro translated SAS-4 fragments (prey); 25 mM HEPES, 100 mM NaCl, 20 mM imidazole, 1 mM DTT, 10% sucrose, 0.02% Tween-20, pH 7.4, 4°C; autoradiography; only the target purified

binding: binds
B1: C. elegans SAS-4, full-length, in vitro translated (protein, UniProt P34402 1-808)
chain: MASDENIGADGEQKPSRPFLRKGQGTARFRMPRNNKTSAGAPPTSELSSASSPSINVPRFSLSNALPNSARTVDSGISNEDETRPPTTASLPMDQPSLSSSPENRLNPAPSVAEEHGHSGQHAEEEEDNDTDEVSAMPSFVPDEPSTLVNSDHELSDDALKYKNAAAEFKAFERRMDSMRSASTITTSLATPSSCAPSNSSEPPTRSTPIMNDLGVGPNNHNWPSSMQELSGISLETPQARPLGSNRINQLVRSEAQTGISLLQHHERPTVTAPLRRNDMMNSSRQNPQNGNVQDENRPEHVYDQPIHVPGSSLDRQKLEIEIRRHRNLNIQLRDTIAHLDYAEESVHTTKRQLEEKISEVNNFKKELIEEFKKCKKGVEEEFEKKFEKIKEDYDELYEKLKRDQRDLERDQKILKKGTGERNKEFTETIATLRDKLRASETKNAQYRQDIRVRDEKLKKKDEEIEKLQKDGNRLKSTLQTLEKRVKQLRTEKERDDKEKEMFAKVAMNRKTSNPVPPVLNQSVPISITSNGPSRHPSSSSLTTFRKPSTSNRERGVSWADEPNEQSLEAVPQEFLMMPVKEMPGKFGKCTIYRDSLGETSKVTDTIANGLLFEYSNGDLRWVNRQNAVNIYISAVDKTVRIDLPTYNISIIHTFQRQVEVLRPGNNITLISIKRREVRTDLIYQNGMYKTEIFNRDGRYVTKDFSNQEVSRKYNPGTHTYRDNQCRYVLVTDYNDFELVEPEFRLRWYQGDPTGLNNQYILKIIGRPECSEKTLRLEVNLSTCEGTLETAEMIGDKRRKTTLFQWKK
modifications: ^35S-Met labelling
